Results taken from paper PMC12037730 (Nature Communications, 2025).
These are yes or no findings as the source states them, for the method shown. Binding seen in cells or lysates may run through a third protein. Some results given as binding are weak or reduced against the parent protein; the word gives no strength. Sequences can lack the tags named with a protein. Blank lines part the entries; values can stand above or below the molecule they belong to.

Amino acid sequences for entries named in this document (tags omitted).
UniProt P31153: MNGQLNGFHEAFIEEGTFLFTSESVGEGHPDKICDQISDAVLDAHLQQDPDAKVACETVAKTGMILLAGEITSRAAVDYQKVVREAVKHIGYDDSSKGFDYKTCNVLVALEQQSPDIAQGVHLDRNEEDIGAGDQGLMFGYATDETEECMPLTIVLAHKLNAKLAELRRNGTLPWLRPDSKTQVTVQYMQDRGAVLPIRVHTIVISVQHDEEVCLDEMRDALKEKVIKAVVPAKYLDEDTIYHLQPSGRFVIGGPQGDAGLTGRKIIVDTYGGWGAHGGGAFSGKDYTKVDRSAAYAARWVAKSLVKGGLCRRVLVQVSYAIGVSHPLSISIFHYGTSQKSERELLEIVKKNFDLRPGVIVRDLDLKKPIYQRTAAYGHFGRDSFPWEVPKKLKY

Legend:
[1] = target: T1, Flag-tagged PRPS2 (phosphoribosyl pyrophosphate synthetase 2) (human) (UniProt P11908); assay: co-IP; HEK293FT/HEK293T cells transfected with FLAG-PRPS2 and HA-(GFP-)MAT2A; lysis buffer 20 mM tris-HCl pH 7.5, 150 mM NaCl, 0.5 mM EDTA, 0.5% NP-40; anti-FLAG M2 or anti-HA magnetic beads overnight at 4 °C; Western blot
T1 sequence: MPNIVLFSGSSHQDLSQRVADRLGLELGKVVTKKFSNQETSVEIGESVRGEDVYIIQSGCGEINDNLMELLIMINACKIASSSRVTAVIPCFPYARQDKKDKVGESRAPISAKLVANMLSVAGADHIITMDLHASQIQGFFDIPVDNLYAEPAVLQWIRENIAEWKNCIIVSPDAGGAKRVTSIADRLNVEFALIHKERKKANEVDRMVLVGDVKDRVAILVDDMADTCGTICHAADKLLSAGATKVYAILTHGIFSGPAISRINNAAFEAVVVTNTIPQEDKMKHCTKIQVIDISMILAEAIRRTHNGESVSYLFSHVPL

[2] = target: T1, Flag-tagged PRPS2 (phosphoribosyl pyrophosphate synthetase 2) (human); assay: pull-down; Flag-tag based high-affinity pulldown from H1299 and HEK293T (HEK293FT in the text) stable cell lines ectopically expressing Flag-tagged PRPS2 or PRPS1, to trap endogenous interacting proteins; how the proteins were identified is not told
[3] = target: GFP-HA-tagged MAT2A (UniProt P31153); assay: co-IP; HEK293FT/HEK293T cells transfected with FLAG-PRPS2 and HA-(GFP-)MAT2A; lysis buffer 20 mM tris-HCl pH 7.5, 150 mM NaCl, 0.5 mM EDTA, 0.5% NP-40; anti-FLAG M2 or anti-HA magnetic beads overnight at 4 °C; Western blot

- binding [1]: binds
Molecule: GFP-HA-tagged MAT2A (from UniProt P31153 1-395) (enzyme)

- binding [2]: binds
Molecule: endogenous MAT2A (methionine adenosyltransferase 2A) (from UniProt P31153 1-395) (enzyme)

- binding [3]: binds
B1: recombinant PRPS2 (enzyme, human, UniProt P11908-2 1-321, looked up)
chain: T1 sequence
notes: PRPS2, human, full-length gene synthesised and subcloned into pSumo; the form with V103, G104, E105 (3AA) in Loop2 and Q156, i.e. the 321-residue isoform; Crystallised with R5P, ApCpp and Cd2+; source: E. coli BL21(DE3), purified (Ni-NTA, ion exchange, Superdex-200); not shown: His-Sumo, N-terminal, cleaved
